US20170145086A1
Results are given in words; binding and its absence hold for the method and conditions named. Some results given as binding are weak or reduced against the parent protein; the word gives no strength.

Sequences of proteins named here, by UniProt entry; tags and fusion partners are left off. A change or cut given only in a name is not applied to a line headed by its entry.
UniProt O75888: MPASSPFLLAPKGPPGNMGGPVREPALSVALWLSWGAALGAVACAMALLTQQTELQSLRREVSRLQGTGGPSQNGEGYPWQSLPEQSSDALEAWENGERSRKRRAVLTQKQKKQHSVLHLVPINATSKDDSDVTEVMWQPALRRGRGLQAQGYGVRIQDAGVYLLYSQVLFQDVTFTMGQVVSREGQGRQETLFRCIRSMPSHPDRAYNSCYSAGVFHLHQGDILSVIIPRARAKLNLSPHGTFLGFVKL

What was measured:
[1] = target: FLAG-tagged human APRIL (wild type and site-directed variants, Example 7) (human) (UniProt O75888); experiment: ELISA, FLAG-APRIL captured with anti-FLAG antibody
[2] = target: HA-GCN4 hAPRIL (amino acid residues 105-250) (human) (UniProt O75888); experiment: blocking ELISA; blocked: human APRIL binding to human BCMA-Fc
[3] = target: HA-GCN4 hAPRIL (amino acid residues 105-250) (human) (UniProt O75888); experiment: blocking ELISA; blocked: human APRIL binding to BCMA-Fc
[4] = target: HA-GCN4 hAPRIL (amino acid residues 105-250) (human) (UniProt O75888); experiment: indirect ELISA on human APRIL
[5] = target: HA-GCN4 hAPRIL (amino acid residues 105-250) (human) (UniProt O75888); experiment: blocking ELISA; blocked: human APRIL binding to human TACI-Fc
[6] = target: HA-GCN4 hAPRIL (amino acid residues 105-250) (human) (UniProt O75888); experiment: blocking ELISA; blocked: human APRIL binding to TACI-Fc

Measured: binding

B1: monoclonal antibody 3833 (antibody, V domains shown)
VH: QVQLQQSGAELVRPGTSVKMSCKAAGYTFTNYWIGWVKQRPGHGLEWIGDIYPGGIGGGYTKYNEKFKGKATLTADTSSSTAYMQLGSLTSEDSAIYFCSRSETGRAMDYWGQGTSVTVSS
VL: DIQMTQSPSSLSASLGGKVTITCKASQDINKYIAWYQHKPGKGPRLLIHYTSTLKPGIPSRFSGSGSGRDYSFSISDLEPEDIATYYCLQYDNLNTFGGGTKLEIK
binds: [1]

B2: monoclonal antibody 2419-0205 (antibody, IgG2, V domains shown)
VH: QVQLVQSGAEVKKPGSSVKVSCKASGYTFTDYTIHWVRQAPGQGLEWMGWIYPLRGSINYAQKFQGRVTITADKSTSTAYMELSSLRSEDTAVYFCARHGAYYSNAFDYWGQGTLVTVSS
VL: EIVMTQSPATLSVSPGERATLSCRASESVDNDGIRFLHWYQQKPGQAPRLLIYRASNRETGIPARFSGSGSGTEFTLTISSLQSEDFAVYYCQQSNKDPYTFGGGTKVEIK
binds: [2] | [3] | [4] | [5] | [6]
